From PubChem BioAssay AID540275 (National Center for Advancing Translational Sciences (NCATS), 2011)
Out of some 320,000 compounds screened, about 620 (0.19%) were called active. The shares of active, inactive and inconclusive entries below differ from those in the screen. Rule as the data show it: active = activation above about 80%; inconclusive = between about 30% and that limit; inactive = weaker than that.

Chains of the proteins cited; added tags and fusions are not shown.
UniProt Q8NER1, whole entry, looked up: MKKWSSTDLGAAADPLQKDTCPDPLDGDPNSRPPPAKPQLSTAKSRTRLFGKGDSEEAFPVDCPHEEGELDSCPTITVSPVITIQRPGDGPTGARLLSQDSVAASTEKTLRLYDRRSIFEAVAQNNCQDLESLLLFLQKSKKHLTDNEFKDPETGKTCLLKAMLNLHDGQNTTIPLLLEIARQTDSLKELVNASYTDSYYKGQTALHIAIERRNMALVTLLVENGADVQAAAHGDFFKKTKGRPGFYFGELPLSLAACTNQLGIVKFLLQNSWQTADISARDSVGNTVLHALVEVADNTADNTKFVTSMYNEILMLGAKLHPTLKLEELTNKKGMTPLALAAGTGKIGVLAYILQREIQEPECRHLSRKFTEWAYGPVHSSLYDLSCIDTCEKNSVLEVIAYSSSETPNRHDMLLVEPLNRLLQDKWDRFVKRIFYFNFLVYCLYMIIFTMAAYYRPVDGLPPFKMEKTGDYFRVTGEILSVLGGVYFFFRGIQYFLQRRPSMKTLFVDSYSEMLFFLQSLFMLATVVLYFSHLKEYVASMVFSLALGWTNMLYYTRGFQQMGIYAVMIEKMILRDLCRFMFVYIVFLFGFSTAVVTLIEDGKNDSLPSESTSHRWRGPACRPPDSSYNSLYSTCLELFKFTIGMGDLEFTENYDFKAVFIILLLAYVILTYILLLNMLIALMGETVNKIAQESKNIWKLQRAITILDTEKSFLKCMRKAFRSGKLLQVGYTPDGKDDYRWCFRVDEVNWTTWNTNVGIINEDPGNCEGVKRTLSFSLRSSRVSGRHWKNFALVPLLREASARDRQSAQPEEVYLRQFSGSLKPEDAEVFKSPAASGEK

Target: Transient receptor potential cation channel subfamily V member 1 (Homo sapiens) (UniProt Q8NER1)
Assay: HTS Assay for Compounds that Act as Agonists of the Vanilloid Receptor 1; also: 0% is about no effect
Conditions: TRPV1-expressing cells, Fluo-8 calcium influx, agonist mode; at 8.33 µM, active compounds read high
How it was run: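 Fluo-8 calcium influx in TRPV1-expressing cells, kinetic read (ex 480/em 520 nm). Compound added and read 3 min for agonist activity, followed by capsaicin at EC20 final and 2 min further read for enhancement.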

Row | Compound | activation
1 | COc1ccc(C2C3C(=O)N(Cc4ccccc4)C(=O)C3ON2c2ccccc2)c(OC)c1OC (stereo unspecified) | inconclusive: 62.2%
2 | Cn1c(=O)c(=O)n(C)c2cc(S(=O)(=O)N3CCC(Cc4ccccc4)CC3)ccc21 | inactive: 0.189%
3 | COc1ccc(Cl)cc1NC(=O)CN(C)C(=O)c1n[nH]c2ccccc12 | inactive: -8.27%
4 | O=C(/C=C/c1ccccc1)NC(=S)Nc1ccccc1 | inactive: 3.05%
5 | Cc1onc(-c2ccccc2Cl)c1C(=O)Nc1nnc(-c2ccc(Br)cc2)s1 | inactive: 0.341%
6 | COc1cccc(CNC(=O)COC(=O)c2cccc(S(=O)(=O)N3CCCC3)c2)c1 | inconclusive: 35.3%
7 | CCCCN1C(=O)CC(Nc2ccc(CC)cc2)C1=O (stereo unspecified) | inconclusive: 54.5%
8 | CCn1c2ccccc2c2cc(NC(=O)c3ccc([N+](=O)[O-])cc3)ccc21 | inconclusive: 38%
9 | Cc1ccc2[nH]c3c(c2c1)CN(C(=O)CN1CCN(c2cccc(C)c2C)CC1)CC3 | inconclusive: 59%
10 | S=C(c1ccc(-c2ccccc2Cl)o1)N1CCCCC1 | inconclusive: 33.5%
11 | CCN(C(=O)Cn1nc(C(=O)O)c2ccccc2c1=O)C1CCCCC1 | inactive: -0.628%
12 | O=C(NC(=S)Nc1cccnc1Cl)c1ccc(Cl)cc1 | inconclusive: 49%
13 | O=C(CCOc1cccc(Br)c1)Nc1ccc(F)c(S(=O)(=O)N2CCOCC2)c1 | inconclusive: 38.1%
14 | O=C(Nc1ccc(N2CCOCC2)c(Cl)c1)c1cc2ccccc2o1 | inconclusive: 52.1%
15 | Cc1ccc(NC(=S)NN2CCN(C)CC2)cc1 | inactive: 1.6%
16 | Cn1c(C(=O)NC2CCCCC2)cc2sccc21 | inconclusive: 36.3%
17 | Cc1ccn2c(NC3CCCCC3)c(-c3cccc(-c4cccc(Cl)c4)c3)nc2c1 | inconclusive: 44%
18 | Cc1c(C(=O)Nc2cccnc2)oc2ccc(Br)cc12 | active: 91.5%
19 | O=C(c1ccccc1N1CCOCC1)N1CCCC(Nc2ccc(F)cc2)C1 (stereo unspecified) | inconclusive: 68.4%
20 | CC(C)CN1C(=O)c2ccc(NC(=O)c3ccco3)cc2C1=O | inconclusive: 68.1%
21 | CN(C)c1ccc(C(=O)c2ccc(N(C)C)c(N)c2)cc1N | inconclusive: 40.1%
22 | O=C(NCc1ccccc1Cl)C1CCN(S(=O)(=O)c2cccs2)CC1 | inconclusive: 48%
23 | Cc1nc(N2CCCCC2)c2c(-c3cccs3)csc2n1 | inactive: -17%

Row | Compound | activation
24 | COc1ccc(NC(=O)N2CCN(c3nc4ccccc4n3C(C)C)CC2)cc1 | inconclusive: 72.9%
25 | Cc1sc2nc(C3CC3)nc(N3CCN(C(=O)c4ccccc4F)CC3)c2c1C | inconclusive: 41.1%
26 | CC1=NN(C(=O)c2ccc(Cn3cc(Br)c([N+](=O)[O-])n3)o2)C(O)(C(F)(F)F)C1 (stereo unspecified) | inactive: 1.55%
27 | CCCOc1ccc(C(=O)Nc2ccc(Cl)cn2)cc1 | inconclusive: 41.1%
28 | S=C(NCc1ccccc1)NCc1ccc(CNC(=S)NCc2ccccc2)cc1 | inconclusive: 33%
29 | COc1cc(C(=O)Nc2cc(S(C)(=O)=O)ccc2Cl)ccc1OCC(=O)N1CCOCC1 | inactive: -0.891%
30 | Cc1ccc(CNC(=O)c2csc3c2CCCCC3)cc1 | inconclusive: 51.6%
31 | CCCCC(=O)Nc1ccc(NC(=O)c2ccccc2OC)cn1 | inactive: 0.334%
32 | COc1cc(C(=O)NCc2ccncc2)cc(OC)c1OC | inactive: 4.06%
33 | O=C(c1ccc(CN2CCc3ccccc3C2)cc1)N1CCN(c2ccccc2)CC1 | inconclusive: 33.4%
34 | CC(=O)c1sc(NC(=O)c2ccc(C)c(C)c2)nc1C | inconclusive: 38.5%
35 | S=C(NCc1ccc(Cl)cc1)NCc1ccco1 | inconclusive: 74.5%
36 | Cc1ccc(-c2nnc(-c3ccc(Br)cc3)o2)o1 | inconclusive: 48.1%
37 | N#Cc1c(-c2ccc(F)cc2)cc(-c2cccnc2)nc1N | inconclusive: 57.4%
38 | CC1(c2ccccc2)NC(=O)N(CCOc2ccccc2)C1=O (stereo unspecified) | inactive: 10.9%
39 | CCn1ncc(C2=NOC(C(=O)NCc3ccccc3)C2)c1C (stereo unspecified) | inactive: -0.291%
40 | CCOC(=O)c1ccc(NC(=O)N2CCN(Cc3cccc(F)c3)CC2)cc1 | active: 81.5%
41 | CC(C)(C)OC(=O)CNC(=O)c1[nH]cnc1C(=O)N[C@@H](Cc1ccccc1)C(=O)OCc1ccccc1 | inconclusive: 76.9%
42 | Cc1ccc(NC(=O)c2ccc(Cl)c(S(=O)(=O)N3CCCC3)c2)nc1 | inconclusive: 65.7%
43 | Cc1nn(C)c(C)c1N1C(=O)c2cccc3c(N)ccc(c23)C1=O | active: 93.5%
44 | Cc1cccc(OCC(=O)Nc2ccccc2N2CCCCC2)c1C | inconclusive: 35.9%
45 | c1coc(-c2nc3cc4ccccc4cc3nc2-c2ccco2)c1 | inactive: -1.23%
46 | COCCN1CCn2c(nc3cc(NC(=O)c4ccc(OC)cc4)ccc32)C1 | inactive: 1.62%

Single entries from the entries so far:
activation with COc1cc(C(=O)NCc2ccncc2)cc(OC)c1OC reads inactive: 4.06%
activation with Cc1sc2nc(C3CC3)nc(N3CCN(C(=O)c4ccccc4F)CC3)c2c1C reads inconclusive: 41.1%
activation with CC(C)(C)OC(=O)CNC(=O)c1[nH]cnc1C(=O)N[C@@H](Cc1ccccc1)C(=O)OCc1ccccc1 reads inconclusive: 76.9%
activation with Cc1ccc(CNC(=O)c2csc3c2CCCCC3)cc1 reads inconclusive: 51.6%
activation with S=C(NCc1ccccc1)NCc1ccc(CNC(=S)NCc2ccccc2)cc1 reads inconclusive: 33%
activation with CCn1ncc(C2=NOC(C(=O)NCc3ccccc3)C2)c1C (stereo unspecified) reads inactive: -0.291%
activation with S=C(NCc1ccc(Cl)cc1)NCc1ccco1 reads inconclusive: 74.5%

Going on with the list.

Row | Compound | activation
47 | O=C(Nc1ccccc1C(=O)N/N=C/c1ccc(F)cc1)c1ccccc1Br | inconclusive: 49.1%
48 | O=S(=O)(c1ccc(Cl)c(NC(=S)N/N=C/c2ccc(O)cc2)c1)N1CCOCC1 | inactive: -5.75%
49 | O=C(CSc1nnc(-c2cccs2)o1)N1CCCCC1 | inconclusive: 44.4%
50 | O=C(c1cc2c(s1)-c1ccccc1OC2)N1CCc2ccccc2C1 | inconclusive: 68.6%
51 | OCCNc1ncnc2c1c(-c1ccccc1)c(-c1ccccc1)n2Cc1ccco1 | inactive: 16.9%
52 | CCC(C)c1ccc2oc(-c3ccc(NC(=O)Cn4cnc5c(=O)n(C)c(=O)n(C)c54)cc3)nc2c1 (stereo unspecified) | inactive: -4.51%
53 | O=C(NCCOC(=O)c1ccc(F)cc1)c1ccc(F)cc1 | inconclusive: 35.1%
54 | CNc1snc(C)c1C(=O)OC(C)C(=O)NCc1ccccc1 (stereo unspecified) | inconclusive: 39.9%
55 | O=C(CSc1nnnn1C1CC2CCC1C2)Nc1ccnc2ccccc12 (stereo unspecified) | inconclusive: 40.7%
56 | C(=C\c1nc2ccccc2[nH]1)/c1ccccc1 | inconclusive: 68.9%
57 | CCN(CC(=O)Nc1ccc(OC)cc1)C(=O)c1oc2c(Cl)cccc2c1C | inactive: 17.7%
58 | CCOC(=O)c1ccc(N/C=C2/CCCC(C)C2=O)cc1 (stereo unspecified) | inconclusive: 68.7%
59 | CC(=C\c1ccccc1)/C=C1/SC(=S)N(CCCC(=O)O)C1=O | inactive: 6.92%
60 | C/C(=N/NC(=O)c1ccc2c(c1)OCO2)c1ccc(NC(=O)C(F)(F)F)cc1 | inconclusive: 36.2%
61 | CC(=O)/C=C(\C)Nc1ccccc1O | inactive: -2.63%
62 | Cc1ccccc1CSCCC(=O)NCCC1=CCCCC1 | inconclusive: 31%
63 | O=C(Nc1ccc2c(c1)OCO2)C1CCN(C(=O)c2ccc(Cl)cc2)CC1 | inconclusive: 31.6%
64 | CCCCn1c(CNC(=O)c2cccs2)nc2ccccc21 | inactive: 17%
65 | CCOC(=O)/C(C#N)=C/c1cc(C)n(-c2ccccc2)c1C | inconclusive: 38.5%
66 | O=C(Cn1cccc1)N1CCN(C(c2ccccc2)c2ccccc2)CC1 | inconclusive: 31.1%
67 | O=C(CSc1ccc(F)cc1)Nc1nnc(-c2ccco2)o1 | inactive: 0.207%
68 | CCCCn1c(=O)nc2n(-c3ccccc3)c3ccccc3cc-2c1=O | inconclusive: 30.5%
69 | O=C(CCSCc1cccc(Cl)c1)NCCC1=CCCCC1 | inconclusive: 53.6%

Row | Compound | activation
70 | N#C/C(=C/c1ccc(N2CCCCC2)o1)C(=O)Nc1ccc(Cl)cc1 | inconclusive: 55%
71 | CCNc1nc(C)nc2c1oc1ccccc12 | inconclusive: 36.1%
72 | O=C(CSc1nc2ccc(NC(=O)C3CCCCC3)cc2s1)NCC1CCCO1 (stereo unspecified) | inconclusive: 30.4%
73 | OCc1nc2ccccc2n1C/C=C/c1ccccc1 | inconclusive: 30.4%
74 | O=C(c1ccc(-c2ccc([N+](=O)[O-])cc2)o1)N1CCCCC1 | inactive: 2.07%
75 | CNC(=O)c1[nH]cnc1C(=O)N[C@@H](CC(C)C)C(=O)OCc1ccccc1 | inconclusive: 30.3%
76 | CCc1c(C#N)c(SCCC(=O)Nc2ccc(F)cc2)nc2c1C(=O)CC(C)(C)C2 | inconclusive: 60.1%
77 | CCOC(=O)c1ccc(Nc2ncnc3c2cnn3C)cc1 | active: 82.5%
78 | Cc1cccc(CNC(=O)Cc2csc3ccccc23)c1 | inactive: 1.66%
79 | Cc1cccc(-c2n[nH]c(=S)n2/N=C/c2ccco2)c1 | inactive: 0.144%
80 | Cc1ccc(-c2csc(NC(=O)/C=C/c3cccs3)n2)cc1C | inactive: 2.45%
81 | O=C1NC(Cc2c[nH]c3ccccc23)C(=O)N1CCOc1ccc(F)cc1 (stereo unspecified) | inconclusive: 32.1%
82 | CCOc1cnn(Cc2ccccc2)c(=O)c1SCc1ccccc1 | inconclusive: 66.3%
83 | CNC(=O)c1ccsc1NC(=O)CCS(=O)(=O)c1ccc(C)cc1 | inactive: -1.12%
84 | O=C(/C=C/c1cccc([N+](=O)[O-])c1)Nn1c(-c2ccccc2F)nc2ccccc2c1=O | inconclusive: 54%
85 | CCOC(=O)C1CCN(c2cc3c(cc2NC(=O)c2ccc(OC)c(OC)c2)n(C)c(=O)n3C)CC1 | inconclusive: 36.1%
86 | O=C(/C=C/c1ccc([N+](=O)[O-])cc1)Nc1cccc(C(=O)Nc2ccccc2C(=O)O)c1 | inactive: -4.12%
87 | O=C(NC1CCCCC1)NC12CC3CC(CC(C3)C1)C2 | inconclusive: 54.1%
88 | CCN(CC)S(=O)(=O)c1ccc(OCC(=O)NCc2ccccc2)cc1 | inconclusive: 48.3%
89 | COc1cccc(NC(=O)CCSc2ccc(C)cc2)c1 | inconclusive: 62.2%
90 | NC(=O)NC(=O)COC(=O)CCCCCNS(=O)(=O)c1ccc2c(c1)OCCO2 | inactive: 0.476%
91 | O=C(N/N=C/c1cccc(O)c1)c1cc2c(ccc3ccccc32)o1 | inconclusive: 41.5%
